Results deposited as PubChem BioAssay AID1259254 (NCATS, 2017).

Assay: 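Gene knock-downs that lead to re-replication, shown by excess G2 DNA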 (primary screen)
Cells: human HCT116 colorectal cancer cells
Reagents: single siRNA against human genes
Timing: 3 days
Measurement: 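Imaged Hoechst DNA stain sorts each cell into a cycle phase by DNA amount; per plate, G2 fraction set to 0% for non-targeting and 100% for GMNN siRNA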
Scale: G2 robust z-score: higher = more G2 cells, more excess DNA replication
Rule for the call: 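Active siRNAs have a G2 robust z of 5 or more median absolute deviations over the median, which in these data means about 38% or higher of GMNN control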
The deposit covers about 59,000 reagents; below is an unselected part. About 1,550 of all reagents (2.6%) were called active. 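G2 share is only a proxy for re-replication; each gene was hit by three separate siRNAs, and active genes were retested.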 A number with no mark means an inactive call. The numbers tell different reagents against one gene apart. Not all columns of the deposit are shown. No sequences are given here. Not given: the amount of reagent.

| target | reagent no. | G2 robust z-score |
| --- | --- | --- |
| GPX7 | 1 | -0.837 |
| GPX7 | 2 | -0.388 |
| GPX7 | 3 | -0.976 |
| TESPA1 | 1 | 0.273 |
| TESPA1 | 2 | 1.17 |
| TESPA1 | 3 | 3.9 |
| PARP3 | 1 | 1.21 |
| PARP3 | 2 | 1.22 |
| PARP3 | 3 | -1.56 |
| GRXCR2 | 1 | -0.173 |
| GRXCR2 | 2 | -0.368 |
| GRXCR2 | 3 | -0.884 |
| LINC00863 | 1 | -1.08 |
| LINC00863 | 2 | 1.6 |
| LINC00863 | 3 | -0.294 |
| ACTA2 | 1 | 6.72 (active) |
| ACTA2 | 2 | -0.579 |
| ACTA2 | 3 | 0.905 |
| CD6 | 1 | 1.31 |
| CD6 | 2 | 4.42 |
| CD6 | 3 | 3.86 |
| COQ8B | 1 | -0.259 |
| COQ8B | 2 | -1.48 |
| COQ8B | 3 | -0.349 |

Continued (5 carried over from the part before).
| target | reagent no. | G2 robust z-score |
| --- | --- | --- |
| CD6 | 2 | 4.42 |
| CD6 | 3 | 3.86 |
| COQ8B | 1 | -0.259 |
| COQ8B | 2 | -1.48 |
| COQ8B | 3 | -0.349 |
| BTF3L4P2 | 1 | 3.1 |
| BTF3L4P2 | 2 | -0.269 |
| BTF3L4P2 | 3 | -0.572 |
| KLF13 | 1 | -0.142 |
| KLF13 | 2 | -1.21 |
| KLF13 | 3 | -0.158 |
| ARFGAP3 | 1 | 0.872 |
| ARFGAP3 | 2 | 0.245 |
| ARFGAP3 | 3 | -0.194 |
| GNAT3 | 1 | -0.389 |
| GNAT3 | 2 | -0.616 |
| GNAT3 | 3 | -0.0525 |
| IFT27 | 1 | 0.27 |
| IFT27 | 2 | 0.915 |
| IFT27 | 3 | 0.987 |
| FSHB | 1 | -1.05 |
| FSHB | 2 | 0.683 |
| FSHB | 3 | -0.425 |
| AGBL1-AS1 | 1 | 0.692 |
| AGBL1-AS1 | 2 | -0.798 |
| AGBL1-AS1 | 3 | -0.049 |
| C6orf47 | 1 | -1.07 |
| C6orf47 | 2 | 0.401 |
| C6orf47 | 3 | 2.04 |
